# PMC8882114
# Amino acid sequences for entries named in this document (tags omitted). Residues count along the entry.
# UniProt P11021, residues 19-654: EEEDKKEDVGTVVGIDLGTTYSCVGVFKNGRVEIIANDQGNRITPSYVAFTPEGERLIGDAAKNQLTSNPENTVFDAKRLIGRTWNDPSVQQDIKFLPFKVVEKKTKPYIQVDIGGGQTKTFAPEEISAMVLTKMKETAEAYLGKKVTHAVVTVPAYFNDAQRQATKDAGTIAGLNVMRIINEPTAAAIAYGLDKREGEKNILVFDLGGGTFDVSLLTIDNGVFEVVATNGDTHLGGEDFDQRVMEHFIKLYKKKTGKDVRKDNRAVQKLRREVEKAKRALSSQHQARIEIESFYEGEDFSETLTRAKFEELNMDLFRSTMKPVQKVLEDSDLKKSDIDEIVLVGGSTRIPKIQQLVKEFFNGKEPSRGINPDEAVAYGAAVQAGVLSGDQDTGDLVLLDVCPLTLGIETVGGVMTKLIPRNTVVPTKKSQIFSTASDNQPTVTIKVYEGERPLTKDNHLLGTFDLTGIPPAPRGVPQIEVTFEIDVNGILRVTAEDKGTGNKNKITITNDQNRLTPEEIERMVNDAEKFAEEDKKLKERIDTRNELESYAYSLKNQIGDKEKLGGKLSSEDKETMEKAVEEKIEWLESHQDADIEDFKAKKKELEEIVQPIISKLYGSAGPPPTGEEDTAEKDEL
# Where a chain is given by its changes, count along the chain named. Results are given in words; binding and its absence hold for the method and conditions named. Binding seen in cells or lysates may run through a third protein. Some binding calls cover weakened binding; strength is not graded here. For some of these results: Sequences can lack the tags named with a protein.
# T1: Three prime repair exonuclease 1 (TREX1), endogenous (human (endogenous in 293 T, SH-SY5Y, A431)) (UniProt Q9NSU2)
# T1 sequence: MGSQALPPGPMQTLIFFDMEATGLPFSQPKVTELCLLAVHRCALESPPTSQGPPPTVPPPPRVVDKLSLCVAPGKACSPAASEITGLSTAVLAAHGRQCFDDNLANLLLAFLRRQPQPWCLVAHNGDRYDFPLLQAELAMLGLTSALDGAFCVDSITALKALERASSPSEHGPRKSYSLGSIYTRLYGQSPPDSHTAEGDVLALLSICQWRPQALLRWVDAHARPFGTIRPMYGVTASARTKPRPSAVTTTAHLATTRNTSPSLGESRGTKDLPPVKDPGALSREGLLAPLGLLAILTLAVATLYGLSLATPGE
# T2: FLAG-tagged full-length (FL) TREX1 (p3XFLAG-CMV-7.1) (human) (UniProt Q9NSU2)
# T2 sequence: T1 sequence
# T3: GFP-tagged TREX1 (wild type, pEGFP-N3) (human) (UniProt Q9NSU2)
# T3 sequence: T1 sequence
# T4: GFP-tagged TREX1 V91M (HSP patient-specific mutant, pEGFP-N3) (human) (UniProt Q9NSU2)
# T4 sequence: T1 sequence with V91M
# B1: FLAG-tagged full-length (FL) TREX1 (p3XFLAG-CMV-7.1) (protein, UniProt Q9NSU2-3 1-314)
# chain: T1 sequence
# Experiments:
# [1] = molecular target: T1, Three prime repair exonuclease 1 (TREX1), endogenous (human (endogenous in 293 T, SH-SY5Y, A431)); assay: co-IP; membrane fractions containing ER
# [2] = molecular target: T1, Three prime repair exonuclease 1 (TREX1), endogenous (human (endogenous in 293 T, SH-SY5Y, A431)); assay: co-IP; IP of TREX1-BiP/GRP78 from cells treated with the TAT-conjugated TREX1 peptide (5 μM)
# [3] = molecular target: T2, FLAG-tagged full-length (FL) TREX1 (p3XFLAG-CMV-7.1) (human); assay: co-IP; FLAG-tagged full-length TREX1 and deletion constructs D1-D4 (p3XFLAG-CMV-7.1) assessed by IP
# [4] = molecular target: T3, GFP-tagged TREX1 (wild type, pEGFP-N3) (human); assay: proximity ligation; Duolink in situ red kit; fixed SH-SY5Y cells transfected with GFP-tagged TREX1 WT or V91M; primary antibodies against GFP and BiP/GRP78
# [5] = molecular target: T4, GFP-tagged TREX1 V91M (HSP patient-specific mutant, pEGFP-N3) (human); assay: as above
# [6] = molecular target: T3, GFP-tagged TREX1 (wild type, pEGFP-N3) (human); assay: co-IP; 293 T cells transfected with GFP-tagged TREX1 plasmids (wild type in increasing dose; V91M); IP with anti-GFP antibody, blot for endogenous BiP/GRP78
# [7] = molecular target: T4, GFP-tagged TREX1 V91M (HSP patient-specific mutant, pEGFP-N3) (human); assay: as above
# [8] = molecular target: T1, Three prime repair exonuclease 1 (TREX1), endogenous (human (endogenous in 293 T, SH-SY5Y, A431)); assay: co-IP; endogenous proteins from 293 T, SH-SY5Y and A431 lysates; Pierce IP lysis buffer, indicated antibodies and protein G-agarose overnight at 4 °C, washed with TBS, western blot
# [9] = molecular target: GST-tagged BiP/GRP78 (UniProt P11021); assay: pull-down; 293 T cells cotransfected with GST-tagged BiP/GRP78 and FLAG-tagged TREX1 plasmids; GST precipitated from cell lysates, western blot
# [10] = molecular target: BiP/GRP78, endogenous (human (endogenous in 293 T, SH-SY5Y, A431)) (UniProt P11021); assay: co-IP; competition: cells treated with the TAT-conjugated TREX1 peptide (5 μM), loss of the TREX1-BiP/GRP78 co-precipitate read out; only the binder purified
molecule,measurement,setting,value
"BiP/GRP78, endogenous (from UniProt P11021 19-654)",binding,[1],binds
same,binding,[2],binds
same,binding,[3],binds
same,binding,[4],binds
same,binding,[5],binds weakly
same,binding,[6],binds
same,binding,[7],binds weakly
same,binding,[8],binds
B1,binding,[9],binds
"AASEITGLSTAVLAAHGRQC (peptide, UniProt Q9NSU2-3 80-99) [TAT-conjugated TREX1 mimic peptide (amino acids 80-99)]",binding,[10],binds
